Assay [1] relates to HeLa. Briefly: nuclear count per well, robust Z-score vs DMSO; higher = more cells (less toxicity). To be noted: 10 µM; 6 h.
Assay [2] relates to HeLa. Briefly: MALAT1 nuclear FISH intensity, robust Z-score vs DMSO; higher = more nuclear MALAT1 lncRNA, active = -3 or less. To be noted: 10 µM; 6 h.

For some assays here: This list holds what a sample rich in hits left over. For some assays here: What follows is the remainder of the data, with few or none of the lowest values.
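Throughout, for MALAT1 nuclear FISH intensity, robust Z-score vs DMSO: High-content confocal imaging of branched-DNA amplified FISH in 384-well plates, Hoechst-defined nuclei, score is well value minus plate DMSO median over DMSO robust SD, four wells per compound.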
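Throughout, for nuclear count per well, robust Z-score vs DMSO: Hoechst-stained nuclei counted by automated confocal imaging of four fields per well in 384-well plates, with the robust Z-score based on the per-plate DMSO median and robust SD.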

As for `Cc1c(C(=O)NN2CCCCC2)nn(-c2ccc(Cl)cc2Cl)c1-c1ccc(I)cc1`, in the assay with HeLa [1], the “nuclear count per well” value was determined as 0.413. The “MALAT1 nuclear FISH intensity” value in the assay with HeLa [2] was inactive: -0.0855.

The record behind these values is the supplement of paper PMC9844399.
